This passage reports binding results from article doi:10.1101/2023.06.10.544440.

The assay deals with zebrafish eIF4E1c (49-230) (zebrafish). In words: pull-down.

These are yes or no findings as the source states them, for the method shown. Binding seen in cells or lysates may run through a third protein. Binding can be weak; no strength is given.

For the molecule PHRYTKEELLDIKELPHSKQRPSCLSEKYDSDGVWDP (domain or fragment, UniProt Q9NRA8 27-63) [eIF4E-binding motif of human eIF4ENIF1 (27-63)], the binding entry was “binds”.
